Values of other authors, collected in patent US20170202818A1, “METHODS AND COMPOSITIONS TO MODIFY GSK-3 ACTIVITY” (Ohio University, priority 2014, published 2017).
For at least one compound, name, drawing or mass did not settle the structure.

Test system: GSK-3
Conditions: cited from earlier work

[Li] [Lithium]
GSK-3 inhibition: relatively weak GSK-3 inhibitor
